The target of assay [1] is FLAG-mTRF2 (mouse) (UniProt O35144). Kind of assay: co-IP; Myc-mMCPH1 and FLAG-mTRF2; cells and beads not told.
Assay [2] concerns the target TRF2, endogenous (U2OS) (human (endogenous in U2OS)) (UniProt Q15554). The experiment in a line: co-IP; endogenous proteins; lysates of U2OS cells synchronized by double thymidine block and harvested at 3 h time points; anti-TRF2 antibody overnight, protein G and protein A sepharose beads 4 h at 4 °C.
The target in assay [3] is FLAG-hTRF1 (human) (UniProt P54274). Kind of assay: co-IP; 293T cells co-transfected with MCPH1 and FLAG-hTRF1; BC300 buffer; beads for this pair not told.

Amino acid sequences for entries named in this document (tags omitted).
UniProt O35144: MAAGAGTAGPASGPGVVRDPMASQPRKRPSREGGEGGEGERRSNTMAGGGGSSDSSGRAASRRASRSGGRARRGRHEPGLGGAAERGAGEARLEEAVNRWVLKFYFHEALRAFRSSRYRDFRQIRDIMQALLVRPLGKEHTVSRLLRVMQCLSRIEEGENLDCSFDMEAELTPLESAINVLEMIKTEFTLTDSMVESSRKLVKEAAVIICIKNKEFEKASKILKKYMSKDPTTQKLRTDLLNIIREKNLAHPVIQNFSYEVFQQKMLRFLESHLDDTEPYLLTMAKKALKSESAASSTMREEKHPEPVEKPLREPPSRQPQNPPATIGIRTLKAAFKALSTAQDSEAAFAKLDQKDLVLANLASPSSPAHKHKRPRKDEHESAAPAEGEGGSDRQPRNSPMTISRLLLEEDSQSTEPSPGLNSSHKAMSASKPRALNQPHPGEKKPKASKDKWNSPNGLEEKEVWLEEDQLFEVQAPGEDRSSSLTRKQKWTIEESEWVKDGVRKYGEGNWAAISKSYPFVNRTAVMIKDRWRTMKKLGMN
UniProt Q15554: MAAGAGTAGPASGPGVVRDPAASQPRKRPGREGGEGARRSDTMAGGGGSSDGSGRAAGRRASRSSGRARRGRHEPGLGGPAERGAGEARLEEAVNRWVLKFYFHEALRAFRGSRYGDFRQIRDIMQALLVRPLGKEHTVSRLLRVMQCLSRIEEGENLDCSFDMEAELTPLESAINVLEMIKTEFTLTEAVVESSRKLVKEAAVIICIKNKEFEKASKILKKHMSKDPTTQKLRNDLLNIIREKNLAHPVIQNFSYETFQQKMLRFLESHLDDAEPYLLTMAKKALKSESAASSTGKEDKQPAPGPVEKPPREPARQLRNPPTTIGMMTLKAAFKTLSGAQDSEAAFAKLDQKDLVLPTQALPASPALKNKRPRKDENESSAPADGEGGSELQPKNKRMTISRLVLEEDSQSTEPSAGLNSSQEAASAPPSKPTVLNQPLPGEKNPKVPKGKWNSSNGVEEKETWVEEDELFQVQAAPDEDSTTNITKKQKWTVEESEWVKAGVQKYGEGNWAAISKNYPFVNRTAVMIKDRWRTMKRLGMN
UniProt P54274: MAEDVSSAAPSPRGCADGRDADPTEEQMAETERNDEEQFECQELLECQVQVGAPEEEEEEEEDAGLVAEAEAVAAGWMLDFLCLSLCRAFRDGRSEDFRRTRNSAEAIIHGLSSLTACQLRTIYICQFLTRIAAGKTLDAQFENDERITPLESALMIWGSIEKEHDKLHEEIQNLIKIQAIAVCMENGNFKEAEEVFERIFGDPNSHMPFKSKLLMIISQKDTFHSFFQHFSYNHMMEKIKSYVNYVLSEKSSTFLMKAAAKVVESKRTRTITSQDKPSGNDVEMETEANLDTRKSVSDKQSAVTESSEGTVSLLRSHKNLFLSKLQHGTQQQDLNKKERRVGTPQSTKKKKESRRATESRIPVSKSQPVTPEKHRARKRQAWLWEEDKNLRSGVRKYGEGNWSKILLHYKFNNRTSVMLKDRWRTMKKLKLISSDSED

These are yes or no findings as the source states them, for the method shown. Binding seen in cells or lysates may run through a third protein. Some binding calls cover weakened binding; strength is not graded here. For part of these data: Tags and fused reporters may be left off the sequences shown.

B1: Myc-mMCPH1 (protein, UniProt Q7TT79 1-822)
chain: MEASGGVGGAFLKDVVAYVEVWSSKGTENYSRTFAKQLEDMGATVSKTLNKQVTHVIFKDGYQSTWDKAQKTGAKLVSVLWVEKCRMAGALVDESLFPAVNTDEHLPNLSRKKHKCMQPKDFILKTPENDKRLQKKFEKMAEELQRQKAALDDDVPVLLFESPRSLVYSSPVNVMKRRLQDMKEKRENLSPTSSQMLEQSQQNPCVSLFETSLNISHQPLSSDESFASGSHSSFGDSCGDQERKLGRSANEMTTVTCPSSPVLRASSFYGSASPNHLRQPRPQKAPDSPSKESINCQKDATGAVADSERKQAAGVSQGVPDEKLCLSPTMSIIEEHQVRLGPKNSSAKRKRAADLGSSPKGKLKKRYKRKSALAIQLFKSDQSPPSTIRLIPGTPDVEASSYEDYFSPDNLKERNSERLPPEAQQLASPSLFHCRGLSKWERRNMLEMCDFTCIGEKHRSISSISDLISKSASSLEKPVKEEVNTASTCLLLVETSANDSPGLCSQPGPQLRDDTGPEGSSHPDTLSSSAHHITPLKGNSTETRDPGDGKGSPKEGSTPPASASPEDEVHICNLSLGEDCNVEKSVEEKENIATGYSESVKNGPGRPDPSDSSCTGLVRPQQKPKKSEKEEKPTRTLVMTSMPSEKQTLIIQVVSTLKGFSFAPEVCETTTHVLVGKSARTLNVLMGIARGCWILSYEWVLLSLELGHWISEEPFELSETFPAAPICRLERHLSTQQYQGTLFANQPKMFIAPASSPPRAKLCELVLLCGGQVSPAPQLASLIIGPYKGKKKARIQYLSEKWVLDSITQHKICDFNNYQLLQ
As to B1, in assay [1], the binding result is reported as “no binding”.

B2: MCPH1, endogenous (U2OS) (protein, UniProt Q8NEM0 1-835)
chain: MAAPILKDVVAYVEVWSSNGTENYSKTFTTQLVDMGAKVSKTFNKQVTHVIFKDGYQSTWDKAQKRGVKLVSVLWVEKCRTAGAHIDESLFPAANMNEHLSSLIKKKRKCMQPKDFNFKTPENDKRFQKKFEKMAKELQRQKTNLDDDVPILLFESNGSLIYTPTIEINSRHHSAMEKRLQEMKEKRENLSPTSSQMIQQSHDNPSNSLCEAPLNISRDTLCSDEYFAGGLHSSFDDLCGNSGCGNQERKLEGSINDIKSDVCISSLVLKANNIHSSPSFTHLDKSSPQKFLSNLSKEEINLQRNIAGKVVTPDQKQAAGMSQETFEEKYRLSPTLSSTKGHLLIHSRPRSSSVKRKRVSHGSHSPPKEKCKRKRSTRRSIMPRLQLCRSEDRLQHVAGPALEALSCGESSYDDYFSPDNLKERYSENLPPESQLPSSPAQLSCRSLSKKERTSIFEMSDFSCVGKKTRTVDITNFTAKTISSPRKTGNGEGRATSSCVTSAPEEALRCCRQAGKEDACPEGNGFSYTIEDPALPKGHDDDLTPLEGSLEEMKEAVGLKSTQNKGTTSKISNSSEGEAQSEHEPCFIVDCNMETSTEEKENLPGGYSGSVKNRPTRHDVLDDSCDGFKDLIKPHEELKKSGRGKKPTRTLVMTSMPSEKQNVVIQVVDKLKGFSIAPDVCETTTHVLSGKPLRTLNVLLGIARGCWVLSYDWVLWSLELGHWISEEPFELSHHFPAAPLCRSECHLSAGPYRGTLFADQPAMFVSPASSPPVAKLCELVHLCGGRVSQVPRQASIVIGPYSGKKKATVKYLSEKWVLDSITQHKVCAPENYLLSQ
With B2, the binding result in assay [2] was “binds”.

B3: MCPH1 (human), as co-expressed with FLAG-hTRF1 (protein, UniProt Q8NEM0 1-835)
chain: B2 chain
Regarding B3, the binding result in assay [3] is recorded as “no binding”.

The record behind these values is PMC7672075.
